This is an account of results in paper PMC8122511.

By UniProt entry, the sequences of proteins in these tests, tags left out.
UniProt P08047: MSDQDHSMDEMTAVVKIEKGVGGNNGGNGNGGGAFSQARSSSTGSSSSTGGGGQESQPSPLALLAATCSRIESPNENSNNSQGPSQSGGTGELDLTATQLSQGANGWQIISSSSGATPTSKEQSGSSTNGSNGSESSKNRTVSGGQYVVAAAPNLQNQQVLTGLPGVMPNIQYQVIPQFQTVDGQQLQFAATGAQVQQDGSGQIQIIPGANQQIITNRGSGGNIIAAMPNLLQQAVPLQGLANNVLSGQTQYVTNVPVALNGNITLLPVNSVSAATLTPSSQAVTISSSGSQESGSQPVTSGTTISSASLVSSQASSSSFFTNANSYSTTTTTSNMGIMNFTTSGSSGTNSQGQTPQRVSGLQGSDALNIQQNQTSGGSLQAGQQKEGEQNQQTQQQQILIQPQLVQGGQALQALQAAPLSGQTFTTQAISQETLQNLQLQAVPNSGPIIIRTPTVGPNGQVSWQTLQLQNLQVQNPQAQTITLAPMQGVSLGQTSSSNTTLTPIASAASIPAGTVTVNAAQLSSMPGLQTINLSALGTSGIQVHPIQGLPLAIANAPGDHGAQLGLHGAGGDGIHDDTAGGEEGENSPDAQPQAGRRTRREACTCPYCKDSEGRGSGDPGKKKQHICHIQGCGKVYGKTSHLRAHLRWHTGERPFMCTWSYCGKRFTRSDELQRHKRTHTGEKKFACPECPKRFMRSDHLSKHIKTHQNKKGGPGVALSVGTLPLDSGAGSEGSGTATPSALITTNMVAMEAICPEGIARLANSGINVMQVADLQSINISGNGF

Results are given in words; binding and its absence hold for the method and conditions named. In cells and extracts the contact can be indirect. Some results given as binding are weak or reduced against the parent protein; the word gives no strength.

The target of the experiment is Sp1 (human (endogenous in H1975)) (UniProt P08047). Nature of the experiment: co-IP; precleared whole cell lysates (250-500 µg) of H1975 parental cells and H1975 tumor spheres, incubated overnight at 4 °C with anti-Sp1 (D4C3) or anti-p53 (DO-1) antibody, recovered on Protein A affinity gel, western blot. (In western blotting, separated proteins are transferred to a membrane and probed.)

B1: Hey1 (protein, UniProt Q9Y5J3 1-304)
chain: MKRAHPEYSSSDSELDETIEVEKESADENGNLSSALGSMSPTTSSQILARKRRRGIIEKRRRDRINNSLSELRRLVPSAFEKQGSAKLEKAEILQMTVDHLKMLHTAGGKGYFDAHALAMDYRSLGFRECLAEVARYLSIIEGLDASDPLRVRLVSHLNNYASQREAASGAHAGLGHIPWGTVFGHHPHIAHPLLLPQNGHGNAGTTASPTEPHHQGRLGSAHPEAPALRAPPSGSLGPVLPVVTSASKLSPPLLSSVASLSAFPFSFGSFHLLSPNALSPSAPTQAANLGKPYRPWGTEIGAF
Regarding B1, the binding result was “binds”.
